Results taken from article PMC6280496.
These are yes or no findings as the source states them, for the method shown. In cells and extracts the contact can be indirect.

Protein sequences, listed by entry. Tags and fused reporters are not part of them. Lines headed by an entry give the natural chain unless they say otherwise; changes in a name come on top.
UniProt P17301: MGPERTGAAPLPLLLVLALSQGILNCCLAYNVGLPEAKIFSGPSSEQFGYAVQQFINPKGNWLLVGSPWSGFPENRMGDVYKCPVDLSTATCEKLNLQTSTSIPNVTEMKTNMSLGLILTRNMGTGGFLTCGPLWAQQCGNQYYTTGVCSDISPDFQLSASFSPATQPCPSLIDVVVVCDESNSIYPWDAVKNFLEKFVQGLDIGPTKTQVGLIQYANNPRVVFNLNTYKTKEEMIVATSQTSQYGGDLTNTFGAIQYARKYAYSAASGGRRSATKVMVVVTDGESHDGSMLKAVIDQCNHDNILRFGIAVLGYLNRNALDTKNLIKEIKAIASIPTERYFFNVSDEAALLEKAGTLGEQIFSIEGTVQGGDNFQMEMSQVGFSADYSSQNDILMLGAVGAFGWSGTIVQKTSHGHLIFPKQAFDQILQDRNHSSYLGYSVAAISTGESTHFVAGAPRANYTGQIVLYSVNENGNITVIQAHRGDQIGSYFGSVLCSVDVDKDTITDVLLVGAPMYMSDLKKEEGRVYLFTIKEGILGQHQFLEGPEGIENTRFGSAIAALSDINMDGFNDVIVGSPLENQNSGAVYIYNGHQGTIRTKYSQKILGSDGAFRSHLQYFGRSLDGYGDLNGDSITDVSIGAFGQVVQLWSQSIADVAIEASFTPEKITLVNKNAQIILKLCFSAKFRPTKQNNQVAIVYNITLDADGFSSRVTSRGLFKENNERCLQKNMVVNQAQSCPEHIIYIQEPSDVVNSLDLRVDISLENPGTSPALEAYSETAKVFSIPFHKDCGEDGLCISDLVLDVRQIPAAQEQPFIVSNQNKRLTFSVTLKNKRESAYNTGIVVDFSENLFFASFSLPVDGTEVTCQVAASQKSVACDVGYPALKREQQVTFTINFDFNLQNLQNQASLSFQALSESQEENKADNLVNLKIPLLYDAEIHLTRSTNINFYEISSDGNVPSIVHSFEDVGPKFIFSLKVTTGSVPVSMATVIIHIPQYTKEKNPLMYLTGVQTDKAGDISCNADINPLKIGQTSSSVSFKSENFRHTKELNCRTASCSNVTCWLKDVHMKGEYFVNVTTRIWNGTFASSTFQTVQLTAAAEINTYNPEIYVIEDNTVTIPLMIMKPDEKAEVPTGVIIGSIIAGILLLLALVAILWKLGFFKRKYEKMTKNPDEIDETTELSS
UniProt P05556: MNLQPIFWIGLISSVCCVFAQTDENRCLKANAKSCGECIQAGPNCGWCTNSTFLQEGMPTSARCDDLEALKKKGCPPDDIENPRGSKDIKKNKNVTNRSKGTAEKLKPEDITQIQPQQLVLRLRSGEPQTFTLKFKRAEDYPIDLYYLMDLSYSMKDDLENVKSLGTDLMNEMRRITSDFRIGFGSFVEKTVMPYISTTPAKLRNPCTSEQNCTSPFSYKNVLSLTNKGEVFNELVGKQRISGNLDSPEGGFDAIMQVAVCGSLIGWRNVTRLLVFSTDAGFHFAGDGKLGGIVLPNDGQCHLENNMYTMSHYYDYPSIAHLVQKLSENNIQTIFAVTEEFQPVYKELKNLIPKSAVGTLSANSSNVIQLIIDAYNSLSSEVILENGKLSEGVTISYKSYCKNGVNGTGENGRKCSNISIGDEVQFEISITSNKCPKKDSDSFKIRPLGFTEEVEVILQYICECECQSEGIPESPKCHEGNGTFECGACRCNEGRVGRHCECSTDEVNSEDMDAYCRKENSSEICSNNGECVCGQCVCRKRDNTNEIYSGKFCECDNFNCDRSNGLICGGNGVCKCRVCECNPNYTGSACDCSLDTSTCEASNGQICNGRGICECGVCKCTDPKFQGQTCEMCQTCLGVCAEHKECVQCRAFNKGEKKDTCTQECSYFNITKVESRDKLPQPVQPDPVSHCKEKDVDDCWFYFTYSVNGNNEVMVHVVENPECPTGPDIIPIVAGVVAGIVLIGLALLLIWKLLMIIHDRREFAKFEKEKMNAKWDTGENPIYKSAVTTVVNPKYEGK

Molecular target: integrin α2β1 (human (endogenous in CCA cells)) (UniProt P17301+P05556)
Test: co-IP; CCA cells lysed in ice-cold IP lysis buffer with protease and phosphatase inhibitors; Dynabeads protein G IP kit; precipitates analysed by western blot

B1: Tetraspanin 1 (TSPAN1) (protein, UniProt O60635 1-241)
chain: MQCFSFIKTMMILFNLLIFLCGAALLAVGIWVSIDGASFLKIFGPLSSSAMQFVNVGYFLIAAGVVVFALGFLGCYGAKTESKCALVTFFFILLLIFIAEVAAAVVALVYTTMAEHFLTLLVVPAIKKDYGSQEDFTQVWNTTMKGLKCCGFTNYTDFEDSPYFKENSAFPPFCCNDNVTNTANETCTKQKAHDQKVEGCFNQLLYDIRTNAVTVGGVAAGIGGLELAAMIVSMYLYCNLQ
- binding: no binding
